One assay concerns the target ELAVL1-FLAG, Q15717. Kind of assay: co-IP. The settings on record: remark: other sources report otherwise.
In assay [1] the target is T1, hnRNPM-GFP (heterogeneous nuclear ribonucleoprotein M, C-terminally GFP-tagged), P52272.
T1 chain: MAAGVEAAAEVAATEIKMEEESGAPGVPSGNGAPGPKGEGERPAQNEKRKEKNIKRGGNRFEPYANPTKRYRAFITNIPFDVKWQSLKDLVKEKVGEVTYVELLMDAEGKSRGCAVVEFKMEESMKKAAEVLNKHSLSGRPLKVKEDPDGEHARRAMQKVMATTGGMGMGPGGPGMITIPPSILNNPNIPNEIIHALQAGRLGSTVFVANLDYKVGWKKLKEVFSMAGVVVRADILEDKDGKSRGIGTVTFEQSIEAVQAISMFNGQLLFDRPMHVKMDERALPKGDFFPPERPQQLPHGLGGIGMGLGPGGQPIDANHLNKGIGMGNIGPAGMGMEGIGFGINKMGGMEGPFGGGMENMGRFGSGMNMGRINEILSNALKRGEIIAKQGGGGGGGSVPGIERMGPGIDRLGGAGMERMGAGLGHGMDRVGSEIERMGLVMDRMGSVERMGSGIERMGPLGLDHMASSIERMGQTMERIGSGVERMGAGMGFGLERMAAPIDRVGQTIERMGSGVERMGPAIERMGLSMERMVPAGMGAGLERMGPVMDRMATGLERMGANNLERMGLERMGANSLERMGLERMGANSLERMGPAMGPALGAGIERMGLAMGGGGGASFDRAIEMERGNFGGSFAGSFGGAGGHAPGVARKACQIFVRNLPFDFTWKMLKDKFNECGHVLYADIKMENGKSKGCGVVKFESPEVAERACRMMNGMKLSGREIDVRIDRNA
Kind of assay: co-IP. Particulars: remark: other sources report otherwise.

By UniProt entry, the sequences of proteins in these tests, tags left out.
UniProt Q15717, whole entry: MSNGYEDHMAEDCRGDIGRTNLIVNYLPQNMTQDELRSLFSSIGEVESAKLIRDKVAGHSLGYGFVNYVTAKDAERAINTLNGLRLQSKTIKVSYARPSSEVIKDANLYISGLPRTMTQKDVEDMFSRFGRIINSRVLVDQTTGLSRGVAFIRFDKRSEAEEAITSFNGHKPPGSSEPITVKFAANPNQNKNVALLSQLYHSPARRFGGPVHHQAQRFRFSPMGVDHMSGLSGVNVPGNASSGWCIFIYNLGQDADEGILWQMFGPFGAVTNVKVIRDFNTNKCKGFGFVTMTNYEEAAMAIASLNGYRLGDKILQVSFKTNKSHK

The target in assay [2] is T1, hnRNPM-GFP (heterogeneous nuclear …). Briefly: proximity ligation. Particulars: remark: other sources report otherwise.
The target of a further assay is ELAVL1-GFP (UniProt Q15717). Briefly: proximity ligation.

These are yes or no findings as the source states them, for the method shown. Binding seen in cells or lysates may run through a third protein. Some entries that bind do so weakly or less than the wild type. For some assays here: Where a sequence is shown, tags or fusion partners need not be part of it.

B1: IKKε, endogenous in HEK293FT, Q14164 1-716 (protein)
chain: MQSTANYLWHTDDLLGQGATASVYKARNKKSGELVAVKVFNTTSYLRPREVQVREFEVLRKLNHQNIVKLFAVEETGGSRQKVLVMEYCSSGSLLSVLESPENAFGLPEDEFLVVLRCVVAGMNHLRENGIVHRDIKPGNIMRLVGEEGQSIYKLTDFGAARELDDDEKFVSVYGTEEYLHPDMYERAVLRKPQQKAFGVTVDLWSIGVTLYHAATGSLPFIPFGGPRRNKEIMYRITTEKPAGAIAGAQRRENGPLEWSYTLPITCQLSLGLQSQLVPILANILEVEQAKCWGFDQFFAETSDILQRVVVHVFSLSQAVLHHIYIHAHNTIAIFQEAVHKQTSVAPRHQEYLFEGHLCVLEPSVSAQHIAHTTASSPLTLFSTAIPKGLAFRDPALDVPKFVPKVDLQADYNTAKGVLGAGYQALRLARALLDGQELMFRGLHWVMEVLQATCRRTLEVARTSLLYLSSSLGTERFSSVAGTPEIQELKAAAELRSRLRTLAEVLSRCSQNITETQESLSSLNRELVKSRDQVHEDRSIQQIQCCLDKMNFIYKQFKKSRMRPGLGYNEEQIHKLDKVNFSHLAKRLLQVFQEECVQKYQASLVTHGKRMRVVHETRNHLRLVGCSVAACNTEAQGVQESLSKLLEELSHQLLQDRAKGAQASPPPIAPYPSPTRKDLLLHMQELCEGMKLLASDLLDNNRIIERLNRVPAPPDV
B1: in the assay with ELAVL1-FLAG, Q15717, the binding entry is on record as “no binding”.

B2: IKKβ (printed as IKKý), endogenous in HEK293FT, O14920 1-756 (protein)
chain: MSWSPSLTTQTCGAWEMKERLGTGGFGNVIRWHNQETGEQIAIKQCRQELSPRNRERWCLEIQIMRRLTHPNVVAARDVPEGMQNLAPNDLPLLAMEYCQGGDLRKYLNQFENCCGLREGAILTLLSDIASALRYLHENRIIHRDLKPENIVLQQGEQRLIHKIIDLGYAKELDQGSLCTSFVGTLQYLAPELLEQQKYTVTVDYWSFGTLAFECITGFRPFLPNWQPVQWHSKVRQKSEVDIVVSEDLNGTVKFSSSLPYPNNLNSVLAERLEKWLQLMLMWHPRQRGTDPTYGPNGCFKALDDILNLKLVHILNMVTGTIHTYPVTEDESLQSLKARIQQDTGIPEEDQELLQEAGLALIPDKPATQCISDGKLNEGHTLDMDLVFLFDNSKITYETQISPRPQPESVSCILQEPKRNLAFFQLRKVWGQVWHSIQTLKEDCNRLQQGQRAAMMNLLRNNSCLSKMKNSMASMSQQLKAKLDFFKTSIQIDLEKYSEQTEFGITSDKLLLAWREMEQAVELCGRENEVKLLVERMMALQTDIVDLQRSPMGRKQGGTLDDLEEQARELYRRLREKPRDQRTEGDSQEMVRLLLQAIQSFEKKVRVIYTQLSKTVVCKQKALELLPKVEEVVSLMNEDEKTVVRLQEKRQKELWNLLKIACSKVRGPVSGSPDSMNASRLSQPGQLMSQPSTASNSLPEPAKKSEELVAEAHNLCTLLENAIQDTVREQDQSFTALDWSWLQTEEEEHSCLEQAS
Regarding B2, the binding entry in the assay with ELAVL1-FLAG, Q15717 was “no binding”.

B3: TBK1 phosphorylated at Ser172 (pTBK1-Ser172), endogenous in THP-1, Q9UHD2 1-729 (protein)
chain: MQSTSNHLWLLSDILGQGATANVFRGRHKKTGDLFAIKVFNNISFLRPVDVQMREFEVLKKLNHKNIVKLFAIEEETTTRHKVLIMEFCPCGSLYTVLEEPSNAYGLPESEFLIVLRDVVGGMNHLRENGIVHRDIKPGNIMRVIGEDGQSVYKLTDFGAARELEDDEQFVSLYGTEEYLHPDMYERAVLRKDHQKKYGATVDLWSIGVTFYHAATGSLPFRPFEGPRRNKEVMYKIITGKPSGAISGVQKAENGPIDWSGDMPVSCSLSRGLQVLLTPVLANILEADQEKCWGFDQFFAETSDILHRMVIHVFSLQQMTAHKIYIHSYNTATIFHELVYKQTKIISSNQELIYEGRRLVLEPGRLAQHFPKTTEENPIFVVSREPLNTIGLIYEKISLPKVHPRYDLDGDASMAKAITGVVCYACRIASTLLLYQELMRKGIRWLIELIKDDYNETVHKKTEVVITLDFCIRNIEKTVKVYEKLMKINLEAAELGEISDIHTKLLRLSSSQGTIETSLQDIDSRLSPGGSLADAWAHQEGTHPKDRNVEKLQVLLNCMTEIYYQFKKDKAERRLAYNEEQIHKFDKQKLYYHATKAMTHFTDECVKKYEAFLNKSEEWIRKMLHLRKQLLSLTNQCFDIEEEVSKYQEYTNELQETLPQKMFTASSGIKHTMTPIYPSSNTLVEMTLGMKKLKEEMEGVVKELAENNHILERFGSLTMDGGLRNVDCL
modifications: here or on the partner: phosphoserine at 172
Regarding B3, the binding entry in assay [1] and in assay [2] was “binds” each time.

B4: TBK1 phosphorylated at Ser172 (pTBK1-Ser172), endogenous in THP-1 (protein, UniProt Q9UHD2 1-729)
chain: MQSTSNHLWLLSDILGQGATANVFRGRHKKTGDLFAIKVFNNISFLRPVDVQMREFEVLKKLNHKNIVKLFAIEEETTTRHKVLIMEFCPCGSLYTVLEEPSNAYGLPESEFLIVLRDVVGGMNHLRENGIVHRDIKPGNIMRVIGEDGQSVYKLTDFGAARELEDDEQFVSLYGTEEYLHPDMYERAVLRKDHQKKYGATVDLWSIGVTFYHAATGSLPFRPFEGPRRNKEVMYKIITGKPSGAISGVQKAENGPIDWSGDMPVSCSLSRGLQVLLTPVLANILEADQEKCWGFDQFFAETSDILHRMVIHVFSLQQMTAHKIYIHSYNTATIFHELVYKQTKIISSNQELIYEGRRLVLEPGRLAQHFPKTTEENPIFVVSREPLNTIGLIYEKISLPKVHPRYDLDGDASMAKAITGVVCYACRIASTLLLYQELMRKGIRWLIELIKDDYNETVHKKTEVVITLDFCIRNIEKTVKVYEKLMKINLEAAELGEISDIHTKLLRLSSSQGTIETSLQDIDSRLSPGGSLADAWAHQEGTHPKDRNVEKLQVLLNCMTEIYYQFKKDKAERRLAYNEEQIHKFDKQKLYYHATKAMTHFTDECVKKYEAFLNKSEEWIRKMLHLRKQLLSLTNQCFDIEEEVSKYQEYTNELQETLPQKMFTASSGIKHTMTPIYPSSNTLVEMTLGMKKLKEEMEGVVKELAENNHILERFGSLTMDGGLRNVDCL
modifications: phosphoserine at 172
As to B4, the binding entry with ELAVL1-GFP is given as “binds”.

The values above are taken from publication doi:10.1101/2023.06.23.545108.
